Source: patent publication EP4000627A1, “TREATMENT OF ABDOMINAL AORTIC ANEURYSM AFTER ITS CLINICAL MANIFESTATION” (Fundacion Instituto De Investigacion Sanitaria Fundacion …, priority 2020, dated 2022)
At least one peptide structure holds a part that was inferred or is arguable (an end, a ring closure or a residue). Where a SMILES comes first, the peptide text is derived from it. Bridges are numbered along the chain shown (N, C = ends). [ ]: non-standard residue; d: D form. The star is where a group is joined. 1Nal = N[C@@H](Cc1cccc2ccccc12)C(=O)O; Acm = CC(=O)NC*

System: STAT1/3
Test: STAT phosphorylation in VSMCs stimulated with IFNγ plus IL-6 (Western blot, confocal microscopy)
Assay type: cell-based, mouse
Details: for cytokine-induced STAT activation: confocal microscopy and western blot of p-STAT1, IFNγ plus IL-6, 60 min

| Compound | cytokine-induced STAT activation | activation (phosphorylation) of STAT1/3 proteins induced by IFNγ plus IL-6 (Western blot, cytokines 60 min, peptide pretreatment) |
| --- | --- | --- |
| CC(=O)NCSC[C@@H]1NC(=O)[C@H]([C@@H](C)O)NC(=O)[C@@H](NC(=O)CNC(=O)CNC(=O)[C@H](CCC(N)=O)NC(=O)[C@@H]2CCCN2C(=O)[C@@H]2CCCN2C(=O)[C@H](CCCNC(=N)N)NC(=O)[C@H](CCCNC(=N)N)NC(=O)[C@H](CCCNC(=N)N)NC(=O)[C@H](CCC(N)=O)NC(=O)[C@H](CCCNC(=N)N)NC(=O)[C@H](CCCNC(=N)N)NC(=O)[C@H](CCCCN)NC(=O)[C@H](CCCCN)NC(=O)[C@H](CCCNC(=N)N)NC(=O)CN)CC(=O)NCCCC[C@@H](C(=O)N[C@@H](Cc2c[nH]cn2)C(=O)O)NC(=O)[C@H](CCCNC(=N)N)NC(=O)[C@H](Cc2cccc3ccccc23)NC(=O)[C@H]([C@@H](C)O)NC(=O)[C@H](CCC(N)=O)NC(=O)[C@H](CCCNC(=N)N)NC1=O [internal cyclic S1PS5 Nal1, GRKKRRQRRRPPQGGDTCAcmRQTNal1RKH] (H-GRKKRRQRRRPPQGGDTC(Acm)RQT[1Nal]RKH-OH; lactam 16-24) | effectively suppressed | – |
| CC(=O)NCSC[C@@H]1NC(=O)[C@H]([C@@H](C)O)NC(=O)[C@@H](NC(=O)CNC(=O)CNC(=O)[C@H](CCC(N)=O)NC(=O)[C@@H]2CCCN2C(=O)[C@@H]2CCCN2C(=O)[C@H](CCCNC(=N)N)NC(=O)[C@H](CCCNC(=N)N)NC(=O)[C@H](CCCNC(=N)N)NC(=O)[C@H](CCC(N)=O)NC(=O)[C@H](CCCNC(=N)N)NC(=O)[C@H](CCCNC(=N)N)NC(=O)[C@H](CCCCN)NC(=O)[C@H](CCCCN)NC(=O)[C@H](CCCNC(=N)N)NC(=O)CN)CC(=O)NCCCC[C@@H](C(=O)N[C@@H](Cc2c[nH]cn2)C(=O)O)NC(=O)[C@H](CCCNC(=N)N)NC(=O)[C@H](Cc2ccccc2)NC(=O)[C@H]([C@@H](C)O)NC(=O)[C@H](CCC(N)=O)NC(=O)[C@H](CCCNC(=N)N)NC1=O [internal cyclic S1PS5, GRKKRRQRRRPPQGGDTCAcmRQTFRKH] (H-GRKKRRQRRRPPQGGDTC(Acm)RQTFRKH-OH; lactam 16-24) | effectively suppressed | – |
| CC(=O)NCSC[C@H](NC(=O)[C@@H](NC(=O)[C@H](CC(=O)O)NC(=O)CNC(=O)CNC(=O)[C@H](CCC(N)=O)NC(=O)[C@@H]1CCCN1C(=O)[C@@H]1CCCN1C(=O)[C@H](CCCNC(=N)N)NC(=O)[C@H](CCCNC(=N)N)NC(=O)[C@H](CCCNC(=N)N)NC(=O)[C@H](CCC(N)=O)NC(=O)[C@H](CCCNC(=N)N)NC(=O)[C@H](CCCNC(=N)N)NC(=O)[C@H](CCCCN)NC(=O)[C@H](CCCCN)NC(=O)[C@H](CCCNC(=N)N)NC(=O)CN)[C@@H](C)O)C(=O)N[C@@H](CCCNC(=N)N)C(=O)N[C@@H](CCC(N)=O)C(=O)N[C@H](C(=O)N[C@@H](Cc1ccccc1)C(=O)N[C@@H](CCCNC(=N)N)C(=O)N[C@@H](CO)C(=O)N[C@@H](Cc1c[nH]cn1)C(=O)O)[C@@H](C)O [linear S1PS5, GRKKRRQRRRPPQGGDTCAcmRQTFRSH] (H-GRKKRRQRRRPPQGGDTC(Acm)RQTFRSH-OH) | – | prevented |
